PubChem BioAssay AID1224830 – NIAID – 2016

Screen: 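Regulators of TLR4 signalling towards TNF-alpha in macrophage-like cells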 (primary screen)
Cells: human THP-1 monocytic leukaemia cells, TNF dual-luciferase reporter clone, PMA-differentiated to macrophage-like cells
Reagents: siRNA pool against human genes, 50 nM
Duration: LPS for 4 h, given about 3 days after siRNA transfection
Conditions: bacterial LPS (TLR4 ligand), 10 ng/ml
Detection: 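Ratio of firefly to renilla light, scaled to the plate median and expressed as a robust z-score per replicate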
Reading the numbers: TNF reporter robust z-score: higher = stronger TNF reporter response to LPS
Active means: 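Each well counts as active if its z-score is over 2.8 or under -1.5; controls are left without a call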
Shown is a random part of about 18,000 reagents tested. Over the whole deposit, about 2,900 (16%) are marked active. 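Calls are made per well; low scores hint the gene aids the LPS response, high scores that it dampens it.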 A number with no mark means an inactive call. Repeated entries: four replicate wells of each siRNA pool.

gene,TNF reporter robust z-score
DENND1A,-0.53
DENND1A,-0.22
DENND1A,-0.29
DENND1A,-0.42
MYO5B,0.42
MYO5B,1.38
MYO5B,0.43
MYO5B,0.99
LMTK1,-0.18
LMTK1,0.2
LMTK1,0.33
LMTK1,-0.81
KRAS,-1.87 (active)
KRAS,-1.7 (active)
KRAS,-1.89 (active)
KRAS,-1.65 (active)
CRABP1,-1.46
CRABP1,-0.78
CRABP1,-1.37
CRABP1,-1.1
ZNF555,-0.33
ZNF555,0.57
ZNF555,-0.62
ZNF555,-0.14
UBE2I,-1.26
UBE2I,-1.01
UBE2I,-1.18
UBE2I,-0.75
COL5A2,0
COL5A2,0.33
COL5A2,-0.07
COL5A2,1.02
MAPK10,-1.07
MAPK10,0.81
MAPK10,0.73
MAPK10,0.19
OR4F15,0.6
OR4F15,2.12
OR4F15,-1.15
OR4F15,-0.64
UGT2B15,-0.96
UGT2B15,-0.36
UGT2B15,-0.57
UGT2B15,0.67
RREB1,-1.4
RREB1,-0.95
RREB1,-0.55
RREB1,-1.78 (active)
CPZ,-0.41
CPZ,1.72
CPZ,-0.26
CPZ,-1.05
GABARAP,-0.21
GABARAP,3.97 (active)
GABARAP,0.69
GABARAP,2
ZNF598,-1.18
ZNF598,-0.96
ZNF598,-1.21
ZNF598,-0.64
GDE1,0.8
GDE1,1.07
GDE1,0.87
GDE1,0.76
VPS33A,-1.16
VPS33A,0.25
VPS33A,-1.72 (active)
VPS33A,-0.48
ACSL5,-1.26
ACSL5,-0.92
ACSL5,-1.18
ACSL5,-0.37
NR1D2,-1.34
NR1D2,-0.83
NR1D2,-0.72
NR1D2,-0.47
TMX1,-0.17
TMX1,0.48
TMX1,-0.28
TMX1,1.09
SPIRE1,0.32
SPIRE1,3.78 (active)
SPIRE1,1.75
SPIRE1,1.04
DUOX2,-0.92
DUOX2,0.76
DUOX2,0.48
DUOX2,1.5
NECAP1,0.96
NECAP1,3.38 (active)
NECAP1,1.98
NECAP1,1.49
DEAF1,0.81
DEAF1,0.47
DEAF1,1.2
DEAF1,2.95 (active)
OR4F3,-0.38
OR4F3,1.58
OR4F3,-0.13
OR4F3,-0.89
SRR,0.26
SRR,2.84 (active)
SRR,1.39
SRR,3.98 (active)
PEPD,0.71
PEPD,2.69
PEPD,0.83
PEPD,0.41
PSORS1C1,-0.35
PSORS1C1,0.63
PSORS1C1,-0.29
PSORS1C1,0.36
CRELD1,0.44
CRELD1,-0.28
CRELD1,-0.71
CRELD1,-0.09
PHKG2,0.71
PHKG2,0.53
PHKG2,0.91
PHKG2,1.44
LRRC15,-0.01
LRRC15,1.27
LRRC15,1.2
LRRC15,0.86
ROPN1B,-0.3
ROPN1B,0.73
ROPN1B,0.24
ROPN1B,1.29
PRADC1,-0.58
PRADC1,-0.08
PRADC1,-0.65
PRADC1,-0.09
VNN3P,-0.11
VNN3P,-0.62
VNN3P,-0.32
VNN3P,-0.99
CXCR3,-1.2
CXCR3,-0.06
CXCR3,-1.77 (active)
CXCR3,-0.42

Active calls (from the list above):
gene,TNF reporter robust z-score
KRAS,-1.87 (active)
KRAS,-1.7 (active)
KRAS,-1.89 (active)
KRAS,-1.65 (active)
RREB1,-1.78 (active)
GABARAP,3.97 (active)
VPS33A,-1.72 (active)
SPIRE1,3.78 (active)
NECAP1,3.38 (active)
DEAF1,2.95 (active)
SRR,2.84 (active)
SRR,3.98 (active)
CXCR3,-1.77 (active)
